According to PMC5352090:
Results are given in words; binding and its absence hold for the method and conditions named. In cells and extracts the contact can be indirect. Some binding calls cover weakened binding; strength is not graded here.

Protein sequences, listed by entry. Tags and fused reporters are not part of them.
UniProt Q12778: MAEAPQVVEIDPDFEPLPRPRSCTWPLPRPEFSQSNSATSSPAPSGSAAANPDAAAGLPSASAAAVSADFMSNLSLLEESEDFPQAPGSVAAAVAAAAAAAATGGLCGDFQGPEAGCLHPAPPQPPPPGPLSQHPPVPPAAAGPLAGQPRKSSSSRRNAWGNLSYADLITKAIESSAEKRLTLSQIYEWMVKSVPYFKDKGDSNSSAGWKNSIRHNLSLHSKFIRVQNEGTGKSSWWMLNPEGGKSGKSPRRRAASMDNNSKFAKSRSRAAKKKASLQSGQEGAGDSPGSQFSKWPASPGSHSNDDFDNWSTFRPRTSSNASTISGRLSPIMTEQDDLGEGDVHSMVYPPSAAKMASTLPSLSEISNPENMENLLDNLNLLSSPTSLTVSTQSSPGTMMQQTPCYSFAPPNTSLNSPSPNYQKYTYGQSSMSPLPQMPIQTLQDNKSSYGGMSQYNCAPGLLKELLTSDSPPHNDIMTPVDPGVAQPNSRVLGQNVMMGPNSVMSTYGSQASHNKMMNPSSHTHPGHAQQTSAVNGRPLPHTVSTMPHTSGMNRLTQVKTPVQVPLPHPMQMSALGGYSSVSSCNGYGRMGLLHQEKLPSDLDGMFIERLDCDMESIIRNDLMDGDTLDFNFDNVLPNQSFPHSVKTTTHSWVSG

Biological target: FOXO1 (human) (UniProt Q12778)
Assay: co-IP; anti-FOXO1 or control IgG precipitated from pre-cleared total cell lysates in co-immunoprecipitation buffer at 4°C, Protein A/G beads, 5 washes; western blot with anti-ZEB2

B1: ZEB2 (protein, UniProt O60315 1-1214)
chain: MKQPIMADGPRCKRRKQANPRRKNVVNYDNVVDTGSETDEEDKLHIAEDDGIANPLDQETSPASVPNHESSPHVSQALLPREEEEDEIREGGVEHPWHNNEILQASVDGPEEMKEDYDTMGPEATIQTAINNGTVKNANCTSDFEEYFAKRKLEERDGHAVSIEEYLQRSDTAIIYPEAPEELSRLGTPEANGQEENDLPPGTPDAFAQLLTCPYCDRGYKRLTSLKEHIKYRHEKNEENFSCPLCSYTFAYRTQLERHMVTHKPGTDQHQMLTQGAGNRKFKCTECGKAFKYKHHLKEHLRIHSGEKPYECPNCKKRFSHSGSYSSHISSKKCIGLISVNGRMRNNIKTGSSPNSVSSSPTNSAITQLRNKLENGKPLSMSEQTGLLKIKTEPLDFNDYKVLMATHGFSGTSPFMNGGLGATSPLGVHPSAQSPMQHLGVGMEAPLLGFPTMNSNLSEVQKVLQIVDNTVSRQKMDCKAEEISKLKGYHMKDPCSQPEEQGVTSPNIPPVGLPVVSHNGATKSIIDYTLEKVNEAKACLQSLTTDSRRQISNIKKEKLRTLIDLVTDDKMIENHNISTPFSCQFCKESFPGPIPLHQHERYLCKMNEEIKAVLQPHENIVPNKAGVFVDNKALLLSSVLSEKGMTSPINPYKDHMSVLKAYYAMNMEPNSDELLKISIAVGLPQEFVKEWFEQRKVYQYSNSRSPSLERSSKPLAPNSNPPTKDSLLPRSPVKPMDSITSPSIAELHNSVTNCDPPLRLTKPSHFTNIKPVEKLDHSRSNTPSPLNLSSTSSKNSHSSSYTPNSFSSEELQAEPLDLSLPKQMKEPKSIIATKNKTKASSISLDHNSVSSSSENSDEPLNLTFIKKEFSNSNNLDNKSTNPVFSMNPFSAKPLYTALPPQSAFPPATFMPPVQTSIPGLRPYPGLDQMSFLPHMAYTYPTGAATFADMQQRRKYQRKQGFQGELLDGAQDYMSGLDDMTDSDSCLSRKKIKKTESGMYACDLCDKTFQKSSSLLRHKYEHTGKRPHQCQICKKAFKHKHHLIEHSRLHSGEKPYQCDKCGKRFSHSGSYSQHMNHRYSYCKREAEEREAAEREAREKGHLEPTELLMNRAYLQSITPQGYSDSEERESMPRDGESEKEHEKEGEDGYGKLGRQDGDEEFEEEEEESENKSMDTDPETIRDEEETGDHSMDDSSEDGKMETKSDHEEDNMEDGM
With B1 as the binder, how does the binding read?
The binding was “binds”.
